The supplement of paper PMC8728848
This is one part of the list.

How the values were obtained:
Assay in all cases: glycan array binding signal (z-score within array); higher = stronger binding
Settings in all cases: glycan notation: IUPAC condensed, linker removed
[1] = target: Gal(b1-4)GlcNAc(b1-3)Gal(b1-4)Glc
How it was run: (§1)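 Glycan array data came from 3228 arrays in the Consortium for Functional Glycomics database, and only arrays with an available protein sequence were kept. Glycan names were put into IUPAC-condensed notation, and columns mapping to the same glycan were averaged. The binding signal is a within-array Z-score, averaged across arrays of one protein sequence run at different concentrations or buffers and across linkers. A negative Z-score can be read as non-binding.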

[2] = target: Gal(b1-4)GlcNAc(b1-3)Gal(b1-4)GlcNAc
How it was run: as §1

[3] = target: Gal(b1-4)GlcNAc(b1-3)Gal(b1-4)GlcNAc(b1-2)Man(a1-3)[Gal(b1-4)GlcNAc(b1-3)Gal(b1-4)GlcNAc(b1-2)Man(a1-6)]Man(b1-4)GlcNAc(b1-4)GlcNAc
How it was run: as §1

[4] = target: Gal(b1-4)GlcNAc(b1-3)Gal(b1-4)GlcNAc(b1-2)Man(a1-3)[Gal(b1-4)GlcNAc(b1-3)Gal(b1-4)GlcNAc(b1-2)Man(a1-6)]Man(b1-4)GlcNAc(b1-4)[Fuc(a1-6)]GlcNAc
How it was run: as §1

[5] = target: Gal(b1-4)GlcNAc(b1-3)Gal(b1-4)GlcNAc(b1-2)[Gal(b1-4)GlcNAc(b1-3)Gal(b1-4)GlcNAc(b1-6)]Man(a1-6)[Gal(b1-4)GlcNAc(b1-3)Gal(b1-4)GlcNAc(b1-2)Man(a1-3)]Man(b1-4)GlcNAc(b1-4)GlcNAc
How it was run: as §1

[6] = target: Gal(b1-4)GlcNAc(b1-3)Gal(b1-4)GlcNAc(b1-2)[Gal(b1-4)GlcNAc(b1-3)Gal(b1-4)GlcNAc(b1-6)]Man(a1-6)[Gal(b1-4)GlcNAc(b1-3)Gal(b1-4)GlcNAc(b1-2)Man(a1-3)]Man(b1-4)GlcNAc(b1-4)[Fuc(a1-6)]GlcNAc
How it was run: as §1

[7] = target: Gal(b1-4)GlcNAc(b1-3)Gal(b1-4)GlcNAc(b1-3)Gal(b1-4)GlcNAc
How it was run: as §1

[8] = target: Gal(b1-4)GlcNAc(b1-3)Gal(b1-4)GlcNAc(b1-3)Gal(b1-4)GlcNAc(b1-2)Man(a1-3)[Gal(b1-4)GlcNAc(b1-3)Gal(b1-4)GlcNAc(b1-3)Gal(b1-4)GlcNAc(b1-2)Man(a1-6)]Man(b1-4)GlcNAc(b1-4)GlcNAc
How it was run: as §1

[9] = target: Gal(b1-4)GlcNAc(b1-3)Gal(b1-4)GlcNAc(b1-3)Gal(b1-4)GlcNAc(b1-2)Man(a1-3)[Gal(b1-4)GlcNAc(b1-3)Gal(b1-4)GlcNAc(b1-3)Gal(b1-4)GlcNAc(b1-2)Man(a1-6)]Man(b1-4)GlcNAc(b1-4)[Fuc(a1-6)]GlcNAc
How it was run: as §1

[10] = target: Gal(b1-4)GlcNAc(b1-3)Gal(b1-4)GlcNAc(b1-3)Gal(b1-4)GlcNAc(b1-2)[Gal(b1-4)GlcNAc(b1-3)Gal(b1-4)GlcNAc(b1-3)Gal(b1-4)GlcNAc(b1-6)]Man(a1-6)[Gal(b1-4)GlcNAc(b1-3)Gal(b1-4)GlcNAc(b1-3)Gal(b1-4)GlcNAc(b1-2)Man(a1-3)]Man(b1-4)GlcNAc(b1-4)[Fuc(a1-6)]GlcNAc
How it was run: as §1

[11] = target: Gal(b1-4)GlcNAc(b1-3)Gal(b1-4)GlcNAc(b1-3)Gal(b1-4)GlcNAc(b1-3)Gal(b1-4)GlcNAc(b1-2)Man(a1-3)[Gal(b1-4)GlcNAc(b1-3)Gal(b1-4)GlcNAc(b1-3)Gal(b1-4)GlcNAc(b1-3)Gal(b1-4)GlcNAc(b1-2)Man(a1-6)]Man(b1-4)GlcNAc(b1-4)GlcNAc
How it was run: as §1

[12] = target: Gal(b1-4)GlcNAc(b1-3)Gal(b1-4)GlcNAc(b1-3)Gal(b1-4)GlcNAc(b1-3)Gal(b1-4)GlcNAc(b1-2)Man(a1-3)[Gal(b1-4)GlcNAc(b1-3)Gal(b1-4)GlcNAc(b1-3)Gal(b1-4)GlcNAc(b1-3)Gal(b1-4)GlcNAc(b1-2)Man(a1-6)]Man(b1-4)GlcNAc(b1-4)[Fuc(a1-6)]GlcNAc
How it was run: as §1

[13] = target: Gal(b1-4)GlcNAc(b1-3)Gal(b1-4)GlcNAc(b1-3)Gal(b1-4)GlcNAc(b1-3)Gal(b1-4)GlcNAc(b1-2)[Gal(b1-4)GlcNAc(b1-3)Gal(b1-4)GlcNAc(b1-3)Gal(b1-4)GlcNAc(b1-3)Gal(b1-4)GlcNAc(b1-6)]Man(a1-6)[Gal(b1-4)GlcNAc(b1-3)Gal(b1-4)GlcNAc(b1-3)Gal(b1-4)GlcNAc(b1-3)Gal(b1-4)GlcNAc(b1-2)Man(a1-3)]Man(b1-4)GlcNAc(b1-4)[Fuc(a1-6)]GlcNAc
How it was run: as §1

[14] = target: Gal(b1-4)GlcNAc(b1-3)Gal(b1-4)GlcNAc(b1-3)Gal(b1-4)GlcNAc(b1-3)Gal(b1-4)GlcNAc(b1-3)Gal(b1-4)GlcNAc(b1-2)Man(a1-3)[Gal(b1-4)GlcNAc(b1-3)Gal(b1-4)GlcNAc(b1-3)Gal(b1-4)GlcNAc(b1-3)Gal(b1-4)GlcNAc(b1-3)Gal(b1-4)GlcNAc(b1-2)Man(a1-6)]Man(b1-4)GlcNAc(b1-4)GlcNAc
How it was run: as §1

[15] = target: Gal(b1-4)GlcNAc(b1-3)Gal(b1-4)GlcNAc(b1-3)Gal(b1-4)GlcNAc(b1-3)Gal(b1-4)GlcNAc(b1-3)Gal(b1-4)GlcNAc(b1-2)Man(a1-3)[Gal(b1-4)GlcNAc(b1-3)Gal(b1-4)GlcNAc(b1-3)Gal(b1-4)GlcNAc(b1-3)Gal(b1-4)GlcNAc(b1-3)Gal(b1-4)GlcNAc(b1-2)Man(a1-6)]Man(b1-4)GlcNAc(b1-4)[Fuc(a1-6)]GlcNAc
How it was run: as §1

[16] = target: Gal(b1-4)GlcNAc(b1-3)Gal(b1-4)GlcNAc(b1-3)Gal(b1-4)GlcNAc(b1-3)Gal(b1-4)GlcNAc(b1-3)Gal(b1-4)GlcNAc(b1-2)[Gal(b1-4)GlcNAc(b1-3)Gal(b1-4)GlcNAc(b1-3)Gal(b1-4)GlcNAc(b1-3)Gal(b1-4)GlcNAc(b1-3)Gal(b1-4)GlcNAc(b1-6)]Man(a1-6)[Gal(b1-4)GlcNAc(b1-3)Gal(b1-4)GlcNAc(b1-3)Gal(b1-4)GlcNAc(b1-3)Gal(b1-4)GlcNAc(b1-3)Gal(b1-4)GlcNAc(b1-2)Man(a1-3)]Man(b1-4)GlcNAc(b1-4)[Fuc(a1-6)]GlcNAc
How it was run: as §1

[17] = target: Gal(b1-4)GlcNAc(b1-3)Gal(b1-4)GlcNAc(b1-3)Gal(b1-4)GlcNAc(b1-3)Gal(b1-4)GlcNAc(b1-3)Gal(b1-4)GlcNAc(b1-3)Gal(b1-4)GlcNAc(b1-2)Man(a1-3)[Gal(b1-4)GlcNAc(b1-3)Gal(b1-4)GlcNAc(b1-3)Gal(b1-4)GlcNAc(b1-3)Gal(b1-4)GlcNAc(b1-3)Gal(b1-4)GlcNAc(b1-3)Gal(b1-4)GlcNAc(b1-2)Man(a1-6)]Man(b1-4)GlcNAc(b1-4)GlcNAc
How it was run: as §1

[18] = target: Gal(b1-4)GlcNAc(b1-3)Gal(b1-4)GlcNAc(b1-3)GalNAc
How it was run: as §1

[19] = target: Gal(b1-4)GlcNAc(b1-3)Gal(b1-4)GlcNAc(b1-3)[Gal(b1-4)GlcNAc(b1-3)Gal(b1-4)GlcNAc(b1-6)]GalNAc
How it was run: as §1

B1: B936 (Bifidobacterium sp) (protein)
chain: MKNWKKAIALVASAAALVSVAACGPSNAGGSSDSGKKTVGFVAVGPEGGFRTANEKDIQKAFEDAGFDLTYSPTQNNDQQKQIQAFNKFVNDEVDAIILSSTEDSGWDDSLKKAAEAEIPVFTVDRNVDVKDAEAKKAIVAHIGPSNVWCGEQAAEFVNKNFPDGANGFILEGPAGLSVVKDRGTGWGNKVASNVKVLESQSANWSTDEAKTVTAGLLDKYKSDNPQFIFAQNDEMGLGAAQAVDAAGLKGKVKIITIDGTKNALQALVDGDLSYVIEYNPIFGKETAQAVKDYLDGKTVEKDIEIESKTFDAASAKEALDNNTRAY
[1]
  glycan array binding signal (z-score): 3.24
[2]
  glycan array binding signal (z-score): -0.345
[3]
  glycan array binding signal (z-score): 1.56
[4]
  glycan array binding signal (z-score): 0.379
[5]
  glycan array binding signal (z-score): 0.512
[6]
  glycan array binding signal (z-score): 0.864
[7]
  glycan array binding signal (z-score): -0.235
[8]
  glycan array binding signal (z-score): 0.363
[9]
  glycan array binding signal (z-score): 0.191
[10]
  glycan array binding signal (z-score): 0.555
[11]
  glycan array binding signal (z-score): -0.333
[12]
  glycan array binding signal (z-score): 0.964
[13]
  glycan array binding signal (z-score): 0.485
[14]
  glycan array binding signal (z-score): -0.371
[15]
  glycan array binding signal (z-score): 0.242
[16]
  glycan array binding signal (z-score): 0.853
[17]
  glycan array binding signal (z-score): 1.23
[18]
  glycan array binding signal (z-score): -0.441
[19]
  glycan array binding signal (z-score): 1.46
